In PubChem BioAssay AID248 (DTP/NCI, 2004):
The list does not hold the whole screen: it gathers tests that were run many times, whatever their T/C, doses with no T/C, and many T/C values between a quarter and a half above the control. Further doses and runs are listed elsewhere. T/C: endpoint of the treated group in % of that of the vehicle group. Some doses have a count of surviving animals in place of a T/C: the source files T/C as zero there, which appears to mark a toxic dose or a test without result, not a measured value. Some doses without a T/C left all or most animals alive at the check, yet need not have been tolerated: the source hardly ever lists a survival T/C far under the control, and the zero likely stands for such cases as well. Survivors were counted at the toxicity check, usually on the fifth day, unless a day is given; later deaths do not show. Schedules are NCI's codes, taken here to give the interval after Q, in days (D) or hours (H), and the number of doses after X. Some schedule codes hold Z or #, which are not explained here. Some doses were run more than once; the values are given in rising order. Where survival is the endpoint, the PubChem record calls one and a half times the control and up active, and a quarter to a half above the control has no call in these data; cut-offs in other NCI protocols can differ. Some T/C values carry the count of animals alive at the toxicity check (mostly the fifth day); without a count, all were alive then.

Tested on: L1210 leukemia ip in BDF1 mice, survival T/C
Assay: NCI In Vivo Anticancer Drug Screen. Data for tumor model L1210 Leukemia (intraperitoneal) in B6D2F1 (BDF1) mice
Settings: T/C endpoint: mean survival time, higher T/C = longer survival
[1] = dose: 120.0 mg/kg/injection, schedule: Q01DX Z (ip), vehicle: saline
[2] = dose: 100.0 mg/kg/injection, schedule: Q04DX003 (ip), vehicle: saline
[3] = dose: 200.0 mg/kg/injection, schedule: Q04DX003 (ip), vehicle: saline
[4] = dose: 400.0 mg/kg/injection, schedule: Q04DX003 (ip), vehicle: saline
[5] = dose: 400.0 mg/kg/injection, schedule: Q04DX003 (ip), vehicle: saline with Tween-80
[6] = dose: 100.0 mg/kg/injection, schedule: Q01DX001 (ip), vehicle: saline
[7] = dose: 400.0 mg/kg/injection, schedule: Q01DX001 (ip), vehicle: saline
[8] = dose: 300.0 mg/kg/injection, schedule: Q01DX001 (ip), vehicle: saline
[9] = dose: 100.0 mg/kg/injection, schedule: Q01DX009 (ip), vehicle: saline

`O=C(Nc1cccc(C2=NCCCN2)c1)Nc1cc(C(=O)Nc2ccc(C3=NCCCN3)cc2)ccc1C(=O)Nc1ccc(C2=NCCCN2)cc1` was tested, and the T/C (dose: 7.5 mg/kg/injection, schedule: Q01DX Z (ip), vehicle: saline) was 137 and 141 % of control, the survivor count (dose: 15.0 mg/kg/injection, schedule: Q01DX Z (ip), vehicle: saline) was 3 of 6 and the survivor count (dose: 30.0 mg/kg/injection, schedule: Q01DX Z (ip), vehicle: saline) was 0 of 6. For the same molecule, the survivor count (dose: 60.0 mg/kg/injection, schedule: Q01DX Z (ip), vehicle: saline) was 0 of 6 and the survivor count [1] was 0 of 6.

`CC1(C)CS(=O)(=O)CC1=O` was tested, and the survivor count [2] was 1 of 6, the survivor count [3] was 0 of 6 and the survivor count [4] was 0 of 6.

With `CCOC(=O)c1cnc(SC)nc1NNc1ccc([N+](=O)[O-])cc1` the survivor count (dose: 400.0 mg/kg/injection, schedule: Q01DX001 (ip), vehicle: saline with Tween-80) was 6 of 6.

`C[n+]1cccc(C(=O)N/N=C/C=C/c2ccccc2)c1` was tested, and the survivor count (dose: 200.0 mg/kg/injection, schedule: Q01DX009 (ip), vehicle: saline with Tween-80) was 1 of 3.

In the case of `Nc1nc([Se])c2ncn(C3CC(O)C(CO)O3)c2n1` (stereo not given), the T/C (dose: 12.5 mg/kg/injection, schedule: Q01DX005 (ip), vehicle: saline) is reported as 136 and 147 % of control [5 of 6 alive], the survivor count (dose: 100.0 mg/kg/injection, schedule: Q01DX005 (ip), vehicle: saline) is reported as 6 of 7 and the survivor count (dose: 200.0 mg/kg/injection, schedule: Q01DX005 (ip), vehicle: saline) is reported as 0 of 7.

In the case of `NC(N)=N/N=C/c1cc([N+](=O)[O-])ccc1O`, the survivor count (dose: 240.0 mg/kg/injection, schedule: Q01DX Z (oral), vehicle: saline) is reported as 2 of 6 and the survivor count (dose: 480.0 mg/kg/injection, schedule: Q01DX Z (oral), vehicle: saline) is reported as 1 of 6.

For `CNC1C(O)C(OC)OC2COC(c3ccccc3)OC21` (stereo not given), the survivor count [5] was 4 of 6.

For `C1O[C@@H]1[C@@H]1CO1`, the T/C (dose: 30.0 mg/kg/injection, schedule: Q01DX015 (ip), vehicle: saline) was 144 % of control, the T/C (dose: 50.0 mg/kg/injection, schedule: Q01DX015 (ip), vehicle: saline) was 126 % of control and the T/C (dose: 66.0 mg/kg/injection, schedule: Q01DX001 (ip), vehicle: saline) was 125 % of control. For the same molecule, the T/C [6] was 138 % of control, the survivor count [6] was 2 of 4 and the survivor count (dose: 150.0 mg/kg/injection, schedule: Q01DX001 (ip), vehicle: saline) was 2 of 6 and 3 of 4. For the same molecule, the survivor count (dose: 200.0 mg/kg/injection, schedule: Q01DX001 (ip), vehicle: saline) was 0 of 6 and the survivor count [7] was 0 of 6.

With `CN1N=C([P+](c2ccccc2)(c2ccccc2)c2ccccc2)CC1(c1ccccc1)c1ccccc1` the survivor count [8] was 2 of 6.

In the case of `Brc1sccc1-c1cccc2ccccc12`, the survivor count (dose: 200.0 mg/kg/injection, schedule: Q04DX003 (ip), vehicle: saline with Tween-80) is reported as 2 of 3.

`COc1ccc(OC)c2c1C=CCC=C2` was tested, and the survivor count (dose: 400.0 mg/kg/injection, schedule: Q04DX003 (ip), vehicle: acetone) was 6 of 6.

For `Clc1ccc(C2=Nc3cccc4cccc(c34)N2)cc1Cl`, the survivor count [1] was 6 of 6.

In the case of `CNC1(C(N)=O)CCN(Cc2ccccc2)CC1`, the survivor count [5] is reported as 3 of 6.

For `NC(=O)c1ccccc1N=NN(CCF)CCF`, the T/C (dose: 8.0 mg/kg/injection, schedule: Q04DX003 (ip), vehicle: Klucel (hydroxypropylcellulose) (HPC)) was 126 % of control, the survivor count (dose: 12.5 mg/kg/injection, schedule: Q01DX009 (ip), vehicle: Klucel (hydroxypropylcellulose) (HPC)) was 1 of 6 and the survivor count (dose: 18.0 mg/kg/injection, schedule: Q04DX003 (ip), vehicle: Klucel (hydroxypropylcellulose) (HPC)) was 0 of 6. The survivor count (dose: 25.0 mg/kg/injection, schedule: Q01DX009 (ip), vehicle: Klucel (hydroxypropylcellulose) (HPC)) was 0 of 6, the survivor count (dose: 50.0 mg/kg/injection, schedule: Q01DX001 (ip), vehicle: Klucel (hydroxypropylcellulose) (HPC)) was 0 of 6 and the survivor count (dose: 100.0 mg/kg/injection, schedule: Q01DX001 (ip), vehicle: other) was 0 of 6. For the same molecule, the survivor count (dose: 200.0 mg/kg/injection, schedule: Q01DX001 (ip), vehicle: other) was 0 of 6 and the survivor count (dose: 400.0 mg/kg/injection, schedule: Q01DX001 (ip), vehicle: other) was 0 of 6.

`O=C(Nc1ccc(C2=NCCN2)cc1)c1ccc(F)c(C(=O)Nc2ccc(C3=NCCN3)cc2)c1` was tested, and the T/C (dose: 18.0 mg/kg/injection, schedule: Q01DX Z (ip), vehicle: water) was 133 % of control.

For `Cc1cccc(NC=O)c1`, the survivor count [5] was 2 of 6.

With `Cc1cc(=O)[nH]c(N/N=C/c2ccccc2)n1` the survivor count (dose: 200.0 mg/kg/injection, schedule: Q01DX009 (ip), vehicle: gum acacia) was 6 of 6.

With `C1=CC2CC1C1CSCC21` (stereo not given) the survivor count (dose: 1.56 mg/kg/injection, schedule: Q01DX009 (ip), vehicle: saline) was 6 of 6, the survivor count (dose: 3.12 mg/kg/injection, schedule: Q01DX009 (ip), vehicle: saline) was 6 of 6 and the survivor count (dose: 6.25 mg/kg/injection, schedule: Q04DX003 (ip), vehicle: saline) was 1 of 6. The survivor count (dose: 12.5 mg/kg/injection, schedule: Q04DX003 (ip), vehicle: saline) was 0 of 6, the survivor count (dose: 25.0 mg/kg/injection, schedule: Q04DX003 (ip), vehicle: saline) was 1 of 6 and the survivor count (dose: 50.0 mg/kg/injection, schedule: Q04DX003 (ip), vehicle: saline) was 1 of 6. For the same molecule, the survivor count [2] was 0 of 6, the survivor count [3] was 6 of 6 and the survivor count [4] was 6 of 6.

In the case of `CCCN(CCC)C(=O)CCl`, the survivor count [7] is reported as 0 of 4.

`COc1ccc(CN(C)C)c(C(O)c2ccccc2)c1` (stereo not given) was tested, and the survivor count (dose: 400.0 mg/kg/injection, schedule: Q01DX001 (ip), vehicle: carboxymethylcellulose (CMC)) was 0 of 4.

In the case of `COc1ccc(OP(=O)(N2CC2)N2CC2)cc1`, the T/C (dose: 150.0 mg/kg/injection, schedule: Q01DX Z (ip), vehicle: carboxymethylcellulose (CMC)) is reported as 141 % of control.

`COC(=O)C1C(C(=O)OC)C2(Cl)C(Cl)=C(Cl)C1(Cl)C2(Cl)Cl` (stereo not given) was tested, and the survivor count (dose: 400.0 mg/kg/injection, schedule: Q01DX009 (ip), vehicle: Klucel (hydroxypropylcellulose) (HPC)) was 2 of 6.

With `CCOP(=O)(N=S=O)OCC` the survivor count (dose: 100.0 mg/kg/injection, schedule: Q04DX003 (ip), vehicle: Klucel (hydroxypropylcellulose) (HPC)) was 0 of 6, the survivor count (dose: 200.0 mg/kg/injection, schedule: Q04DX003 (ip), vehicle: Klucel (hydroxypropylcellulose) (HPC)) was 0 of 6 and the survivor count (dose: 400.0 mg/kg/injection, schedule: Q04DX003 (ip), vehicle: Klucel (hydroxypropylcellulose) (HPC)) was 0 of 6.

With `C/C=C/C(=O)OC(=O)/C=C/C` the survivor count [3] was 1 of 6 and the survivor count [4] was 0 of 6.

In the case of `NC1=NCC(CSS(=O)(=O)O)S1` (stereo not given), the survivor count (dose: 45.0 mg/kg/injection, schedule: Q01DX009 (ip), vehicle: saline) is reported as 2 of 6 and the survivor count (dose: 65.0 mg/kg/injection, schedule: Q01DX009 (ip), vehicle: saline) is reported as 0 of 6.

In the case of `CC[CH2][Sn]([Br])([CH2]CC)[CH2]CC`, the survivor count (dose: 6.25 mg/kg/injection, schedule: Q01DX009 (ip), vehicle: saline) is reported as 0 of 3, the survivor count (dose: 25.0 mg/kg/injection, schedule: Q01DX009 (ip), vehicle: saline) is reported as 0 of 3 and the survivor count (dose: 50.0 mg/kg/injection, schedule: Q01DX009 (ip), vehicle: saline) is reported as 0 of 3. For the same molecule, the survivor count [9] was 0 of 3 and 0 of 6, the survivor count (dose: 200.0 mg/kg/injection, schedule: Q01DX009 (ip), vehicle: saline) was 0 of 6 and the survivor count (dose: 400.0 mg/kg/injection, schedule: Q01DX009 (ip), vehicle: saline) was 0 of 6.

In the case of `CN1CN(c2ccccc2)C2(CCNCC2)C1=O`, the survivor count [8] is reported as 0 of 6.

With `FC(F)(F)c1cccc(B2OCCNCCO2)c1` the survivor count [5] was 2 of 6.

In the case of `CCCC(C(=O)OCCN(CC)CC)(c1ccccc1)c1ccccc1`, the survivor count [9] is reported as 0 of 6 and the survivor count [3] is reported as 0 of 4.
